These results are taken from patent publication US20180320217A1, “METHODS FOR SAMPLING AND MEASURING ORAL LAVAGE PROTEINS” (The Procter & Gamble Company, priority 2017, published 2018).

In the data set the test system is peptides in gingival brush samples. In words: Protein and peptide profiling of gingival brush samples (LC-MS/MS), TABLE 23. The following applies: for Mean Cntl Bsl / Mean Cntl Wk3 / Mean TrtBsl / Mean TrtWk3: peptide abundance, gingival brush samples. It is filed as in vivo, human.

B1: AATC_HUMAN (protein, UniProt P17174 2-413, looked up)
Aspartate aminotransferase, …: APPSVFAEVPQAQPVLVFKLTADFREDPDPRKVNLGVGAYRTDDCHPWVLPVVKKVEQKIANDNSLNHEYLPILGLAEFRSCASRLALGDDSPALKEKRVGGVQSLGGTGALRIGADFLARWYNGTNNKNTPVYVSSPTWENHNAVFSAAGFKDIRSYRYWDAEKRGLDLQGFLNDLENAPEFSIVVLHACAHNPTGIDPTPEQWKQIASVMKHRFLFPFFDSAYQGFASGNLERDAWAIRYFVSEGFEFFCAQSFSKNFGLYNERVGNLTVVGKEPESILQVLSQMEKIVRITWSNPPAQGARIVASTLSNPELFEEWTGNVKTMADRILTMRSELRARLEALKTPGTWNHITDQIGMFSFTGLNPKQVEYLVNEKHIYLLPSGRINVSGLTTKNLDYVATSIHEAVTKIQ
For B1, the “Mean Cntl Bsl” value (control regimen, baseline) came out at 1835.9. Under “control regimen, week 3”, the “Mean Cntl Wk3” value was 3381.2. The “Mean TrtBsl” value (treatment regimen, baseline) amounted to 1731.2. Further, for the setting “treatment regimen, week 3”, the “Mean TrtWk3” value worked out at 3165.4.

B2: ANXA1_HUMAN (protein, UniProt P04083 2-346, looked up)
Annexin A1: AMVSEFLKQAWFIENEEQEYVQTVKSSKGGPGSAVSPYPTFNPSSDVAALHKAIMVKGVDEATIIDILTKRNNAQRQQIKAAYLQETGKPLDETLKKALTGHLEEVVLALLKTPAQFDADELRAAMKGLGTDEDTLIEILASRTNKEIRDINRVYREELKRDLAKDITSDTSGDFRNALLSLAKGDRSEDFGVNEDLADSDARALYEAGERRKGTDVNVFNTILTTRSYPQLRRVFQKYTKYSKHDMNKVLDLELKGDIEKCLTAIVKCATSKPAFFAEKLHQAMKGVGTRHKALIRIMVSRSEIDMNDIKAFYQKMYGISLCQAILDETKGDYEKILVALCGGN
For B2, the “Mean Cntl Bsl” value (control regimen, baseline) is recorded as 529165.7. Moreover, the “Mean Cntl Wk3” value (control regimen, week 3) came out at 960205.2. Further, the “Mean TrtBsl” value (treatment regimen, baseline) came to 573737.1. Moreover, under “treatment regimen, week 3”, the “Mean TrtWk3” value was determined as 1103967.7.

B3: FETUA_HUMAN (protein, UniProt P02765 19-300; P02765 341-367, looked up)
Alpha-2-HS-glycoprotein chain … 1: APHGPGLIYRQPNCDDPETEEAALVAIDYINQNLPWGYKHTLNQIDEVKVWPQQPSGELFEIEIDTLETTCHVLDPTPVARCSVRQLKEHAVEGDCDFQLLKLDGKFSVVYAKCDSSPDSAEDVRKVCQDCPLLAPLNDTRVVHAAKAALAAFNAQNNGSNFQLEEISRAQLVPLPPSTYVEFTVSGTDCVAKEATEAAKCNLLAEKQYGFCKATLSEKLGGAEVAVTCMVFQTQPVSSQPQPEGANEAVPTPVVDPDAPPSPPLGAPGLPPAGSPPDSHVL
Alpha-2-HS-glycoprotein chain … 2: TVVQPSVGAAAGPVVPPCPGRIRHFKV
In the case of B3, for the setting “control regimen, baseline”, the “Mean Cntl Bsl” value is on record as 4239.5. For the same molecule, the “Mean Cntl Wk3” value (control regimen, week 3) was determined as 5183.4. For the same molecule, the “Mean TrtBsl” value (treatment regimen, baseline) turned out to be 3584.3. Besides, the “Mean TrtWk3” value (treatment regimen, week 3) came out at 5904.1.

B4: ACTN1_HUMAN (protein, UniProt P12814 1-892, looked up)
Alpha-actinin-1: MDHYDSQQTNDYMQPEEDWDRDLLLDPAWEKQQRKTFTAWCNSHLRKAGTQIENIEEDFRDGLKLMLLLEVISGERLAKPERGKMRVHKISNVNKALDFIASKGVKLVSIGAEEIVDGNVKMTLGMIWTIILRFAIQDISVEETSAKEGLLLWCQRKTAPYKNVNIQNFHISWKDGLGFCALIHRHRPELIDYGKLRKDDPLTNLNTAFDVAEKYLDIPKMLDAEDIVGTARPDEKAIMTYVSSFYHAFSGAQKAETAANRICKVLAVNQENEQLMEDYEKLASDLLEWIRRTIPWLENRVPENTMHAMQQKLEDFRDYRRLHKPPKVQEKCQLEINFNTLQTKLRLSNRPAFMPSEGRMVSDINNAWGCLEQVEKGYEEWLLNEIRRLERLDHLAEKFRQKASIHEAWTDGKEAMLRQKDYETATLSEIKALLKKHEAFESDLAAHQDRVEQIAAIAQELNELDYYDSPSVNARCQKICDQWDNLGALTQKRREALERTEKLLETIDQLYLEYAKRAAPFNNWMEGAMEDLQDTFIVHTIEEIQGLTTAHEQFKATLPDADKERLAILGIHNEVSKIVQTYHVNMAGTNPYTTITPQEINGKWDHVRQLVPRRDQALTEEHARQQHNERLRKQFGAQANVIGPWIQTKMEEIGRISIEMHGTLEDQLSHLRQYEKSIVNYKPKIDQLEGDHQLIQEALIFDNKHTNYTMEHIRVGWEQLLTTIARTINEVENQILTRDAKGISQEQMNEFRASFNHFDRDHSGTLGPEEFKACLISLGYDIGNDPQGEAEFARIMSIVDPNRLGVVTFQAFIDFMSRETADTDTADQVMASFKILAGDKNYITMDELRRELPPDQAEYCIARMAPYTGPDSVPGALDYMSFSTALYGESDL
B4: under “control regimen, baseline”, the “Mean Cntl Bsl” value was 1660.8. Besides, the “Mean Cntl Wk3” value (control regimen, week 3) is listed as 1371.4. The “Mean TrtBsl” value (treatment regimen, baseline) is 2471.3. Also, for the setting “treatment regimen, week 3”, the “Mean TrtWk3” value stood at 1263.6.

B5: ADSV_HUMAN (protein, UniProt Q9Y6U3 1-715, looked up)
Scinderin: MARELYHEEFARAGKQAGLQVWRIEKLELVPVPQSAHGDFYVGDAYLVLHTAKTSRGFTYHLHFWLGKECSQDESTAAAIFTVQMDDYLGGKPVQNRELQGYESNDFVSYFKGGLKYKAGGVASGLNHVLTNDLTAKRLLHVKGRRVVRATEVPLSWDSFNKGDCFIIDLGTEIYQWCGSSCNKYERLKANQVATGIRYNERKGRSELIVVEEGSEPSELIKVLGEKPELPDGGDDDDIIADISNRKMAKLYMVSDASGSMRVTVVAEENPFSMAMLLSEECFILDHGAAKQIFVWKGKDANPQERKAAMKTAEEFLQQMNYSKNTQIQVLPEGGETPIFKQFFKDWRDKDQSDGFGKVYVTEKVAQIKQIPFDASKLHSSPQMAAQHNMVDDGSGKVEIWRVENNGRIQVDQNSYGEFYGGDCYIILYTYPRGQIIYTWQGANATRDELTTSAFLTVQLDRSLGGQAVQIRVSQGKEPVHLLSLFKDKPLIIYKNGTSKKGGQAPAPPTRLFQVRRNLASITRIVEVDVDANSLNSNDVFVLKLPQNSGYIWVGKGASQEEEKGAEYVASVLKCKTLRIQEGEEPEEFWNSLGGKKDYQTSPLLETQAEDHPPRLYGCSNKTGRFVIEEIPGEFTQDDLAEDDVMLLDAWEQIFIWIGKDANEVEKKESLKSAKMYLETDPSGRDKRTPIVIIKQGHEPPTFTGWFLGWDSSKW
In the case of B5, under “control regimen, baseline”, the “Mean Cntl Bsl” value worked out at 3094.1. Moreover, where the note is “control regimen, week 3”, the “Mean Cntl Wk3” value is 4306.6. For the same molecule, the “Mean TrtBsl” value (treatment regimen, baseline) stood at 2147.3. Also, the “Mean TrtWk3” value (treatment regimen, week 3) is 5044.2.

B6: ZN185_HUMAN (protein, UniProt O15231 1-689, looked up)
Zinc finger protein 185: MSISALGGRTKGKPLPPGEEERNNVLKQMKVRTTLKGDKSWITKQDESEGRTIELPSGRSRATSFSSAGEVPKPRPPSTRAPTGYIIRGVFTKPIDSSSQPQQQFPKANGTPKSAASLVRTANAGPPRPSSSGYKMTTEDYKKLAPYNIRRSSTSGDTEEEEEEEVVPFSSDEQKRRSEAASGVLRRTAPREHSYVLSAAKKSTGPTQETQAPFIAKRVEVVEEDGPSEKSQDPPALARSTPGSNSADGGRTKASRAIWIECLPSMPSPAGSQELSSRGEEIVRLQILTPRAGLRLVAPDVEGMRSSPGNKDKEAPCSRELQRDLAGEEAFRAPNTDAARSSAQLSDGNVGSGATGSRPEGLAAVDIGSERGSSSATSVSAVPADRKSNSTAAQEDAKADPKGALADYEGKDVATRVGEAWQERPGAPRGGQGDPAVPAQQPADPSTPERQSSPSGSEQLVRRESCGSSVLTDFEGKDVATKVGEAWQDRPGAPRGGQGDPAVPTQQPADPSTPEQQNSPSGSEQFVRRESCTSRVRSPSSCMVTVTVTATSEQPHIYIPAPASELDSSSTTKGILFVKEYVNASEVSSGKPVSARYSNVSSIEDSFAMEKKPPCGSTPYSERTTGGICTYCNREIRDCPKITLEHLGICCHEYCFKCGICSKPMGDLLDQIFIHRDTIHCGKCYEKLF
In the case of B6, the “Mean CntlBsl (peptide abundance)” value (control regimen, baseline, pooled gingival brush samples, LC-MS/MS) is recorded as 4594.2. The “Mean CntlWk3 (peptide abundance)” value (control regimen, week 3, pooled gingival brush samples, LC-MS/MS) was 6167.6. Besides, where the note is “treatment regimen, baseline, pooled gingival brush samples, LC-MS/MS”, the “Mean TrtBsl (peptide abundance)” value was found to be 1304.0. Moreover, the “Mean TrtWk3 (peptide abundance)” value (treatment regimen, week 3, pooled gingival brush samples, LC-MS/MS) is listed as 2653.4.

B7: A2ML1_HUMAN (protein, UniProt A8K2U0 18-1454, looked up)
Alpha-2-macroglobulin-like …: EELPNYLVTLPARLNFPSVQKVCLDLSPGYSDVKFTVTLETKDKTQKLLEYSGLKKRHLHCISFLVPPPAGGTEEVATIRVSGVGNNISFEEKKKVLIQRQGNGTFVQTDKPLYTPGQQVYFRIVTMDSNFVPVNDKYSMVELQDPNSNRIAQWLEVVPEQGIVDLSFQLAPEAMLGTYTVAVAEGKTFGTFSVEEYVLPKFKVEVVEPKELSTVQESFLVKICCRYTYGKPMLGAVQVSVCQKANTYWYREVEREQLPDKCRNLSGQTDKTGCFSAPVDMATFDLIGYAYSHQINIVATVVEEGTGVEANATQNIYISPQMGSMTFEDTSNFYHPNFPFSGKIRVRGHDDSFLKNHLVFLVIYGTNGTFNQTLVTDNNGLAPFTLETSGWNGTDVSLEGKFQMEDLVYNPEQVPRYYQNAYLHLRPFYSTTRSFLGIHRLNGPLKCGQPQEVLVDYYIDPADASPDQEISFSYYLIGKGSLVMEGQKHLNSKKKGLKASFSLSLTFTSRLAPDPSLVIYAIFPSGGVVADKIQFSVEMCFDNQVSLGFSPSQQLPGAEVELQLQAAPGSLCALRAVDESVLLLRPDRELSNRSVYGMFPFWYGHYPYQVAEYDQCPVSGPWDFPQPLIDPMPQGHSSQRSIIWRPSFSEGTDLFSFFRDVGLKILSNAKIKKPVDCSHRSPEYSTAMGAGGGHPEAFESSTPLHQAEDSQVRQYFPETWLWDLFPIGNSGKEAVHVTVPDAITEWKAMSFCTSQSRGFGLSPTVGLTAFKPFFVDLTLPYSVVRGESFRLTATIFNYLKDCIRVQTDLAKSHEYQLESWADSQTSSCLCADDAKTHHWNITAVKLGHINFTISTKILDSNEPCGGQKGFVPQKGRSDTLIKPVLVKPEGVLVEKTHSSLLCPKGKVASESVSLELPVDIVPDSTKAYVTVLGDIMGTALQNLDGLVQMPSGCGEQNMVLFAPIIYVLQYLEKAGLLTEEIRSRAVGFLEIGYQKELMYKHSNGSYSAFGERDGNGNTWLTAFVTKCFGQAQKFIFIDPKNIQDALKWMAGNQLPSGCYANVGNLLHTAMKGGVDDEVSLTAYVTAALLEMGKDVDDPMVSQGLRCLKNSATSTTNLYTQALLAYIFSLAGEMDIRNILLKQLDQQAIISGESIYWSQKPTPSSNASPWSEPAAVDVELTAYALLAQLTKPSLTQKEIAKATSIVAWLAKQHNAYGGFSSTQDTVVALQALAKYATTAYMPSEEINLVVKSTENFQRTFNIQSVNRLVFQQDTLPNVPGMYTLEASGQGCVYVQTVLRYNILPPTNMKTFSLSVEIGKARCEQPTSPRSLTLTIHTSYVGSRSSSNMAIVEVKMLSGFSPMEGTNQLLLQQPLVKKVEFGTDTLNIYLDELIKNTQTYTFTISQSVLVTNLKPATIKVYDYYLPDEQATIQYSDPCE
As to B7, the “Mean Cntl Bsl” value (control regimen, baseline) is given as 7579.1. The “Mean Cntl Wk3” value (control regimen, week 3) is recorded as 13769.2. For the setting “treatment regimen, baseline”, the “Mean TrtBsl” value came to 8971.9.
